Data published in patent US8487001B2, “Medium-chain length fatty acids, glycerides and analogues as neutrophil survival and activation factors” (ProMetic BioSciences Inc., priority 2001, dated 2013).
Some entries share one result that the patent states for a list of compounds. At least one structure is not confirmed: it was looked up by name or label, or the drawing left a doubt.

System: bone marrow cells
Assay: In vitro murine bone marrow proliferation ([3H]-thymidine incorporation)
Assay type: cell-based, C57BL/6 mice
Conditions: 48 hr incubation, [3H]-thymidine pulse 6 hr; FIG. 5

SMILES: CCCCCCCCCC(=O)OCC(COC(=O)CCCCCCCCC)OC(=O)CCCCCCCCC [tricaprin]
- increase of bone marrow proliferation relative to the control: 3- to 5 fold
